## Primary screen of a compound library

The values are deposited in ChEMBL (CHEMBL3988442, “University of Dundee, Small-Polar-MMV Screening Library” (2021)).

The filed quantity is “Percent Effect” (%). The controls that fix the scale are not given in the record; negative values are as filed. Compounds were drawn at random from those tested, without regard to their results.

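Growth of Mycobacterium tuberculosis over 4 days (cholesterol / DPPC medium with tyloxapol); the read-out is not stated. Compounds at 500 µM. Higher reads as more growth inhibition (inferred: compounds with an IC50 in retests scored well above the rest). About 18,000 compounds were tested under these conditions; 5% (about 900) showed 50% or more at least once.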

{"smiles": "Cc1noc(CN(C)CC2CCN(CC(C)O)CC2)n1", "stereo": "centres undefined", "Percent Effect": -9.245}
{"smiles": "NC(=O)C1(CNC(=O)c2cc(Cl)sc2Cl)CCOCC1", "Percent Effect": -16.62}
{"smiles": "CCS(=O)(=O)c1cc(Cl)cc(CN)c1", "Percent Effect": 1.464}
{"smiles": "CC(C)NC(=O)N(C)C1CCS(=O)(=O)C1", "stereo": "centres undefined", "Percent Effect": 1.012}
{"smiles": "CCN1CC(C(=O)Nc2ccc(Br)cn2)CC1=O", "stereo": "centres undefined", "Percent Effect": 7.461}
{"smiles": "O=C(Nc1nnc(-c2ccccn2)s1)N1CC[C@@H](O)C1", "Percent Effect": -4.341}
{"smiles": "CN(CCCNC(=O)C1CCC(=O)N1)c1ccccc1", "stereo": "centres undefined", "Percent Effect": -13.05}
{"smiles": "COc1ccc2[nH]c(N3CCOCC3)nc2c1", "Percent Effect": -16.96}
{"smiles": "CCC(=O)NC1CCN(Cc2nnc(C)o2)CC1", "Percent Effect": -2.922}
{"smiles": "CS(=O)(=O)N1CCCN(Cc2nnc(C3CC3)o2)CC1", "Percent Effect": 6.599}
{"smiles": "NC(=O)C1CCN(CC(=O)Nc2cccc(F)c2)CC1", "Percent Effect": 10.8}
{"smiles": "Cc1ccc(CNS(C)(=O)=O)cc1F", "Percent Effect": 13.56}
{"smiles": "Cc1cc(CNC(=O)c2cc(=O)cc(C)o2)ccn1", "Percent Effect": -6.237}
{"smiles": "NS(=O)(=O)c1ncc[nH]1", "Percent Effect": -7.086}
{"smiles": "CCOc1cc(CN2CCCN(C)CC2)ccc1O", "Percent Effect": 13.88}
{"smiles": "COc1ccccc1CCNC(=O)NC[C@H](C)O", "Percent Effect": -4.334}
{"smiles": "CCN1CC(C(=O)Nc2cn(C)cc(Br)c2=O)CC1=O", "stereo": "centres undefined", "Percent Effect": 5.426}
{"smiles": "CN(CCN1CCCC1=O)C(=O)c1ccc(Br)cc1O", "Percent Effect": 8.489}
{"smiles": "CCN(C(=O)c1cccnc1)C1CC1", "Percent Effect": -8.657}
{"smiles": "Cc1noc(C)c1CN1CCn2ccnc2C1", "Percent Effect": -5.155}
{"smiles": "CNC(=O)C(C)(O)CN1Cc2ccccc2C1=O", "stereo": "centres undefined", "Percent Effect": -15.92}
{"smiles": "CC(C)(N)C1CCOCC1", "Percent Effect": -2.877}
{"smiles": "CN(C)C(CNC(=O)Nc1cn[nH]c1)c1ccco1", "stereo": "centres undefined", "Percent Effect": -3.213}
{"smiles": "O=S(=O)(NCCC(O)c1ccccc1)c1c[nH]cn1", "stereo": "centres undefined", "Percent Effect": 4.613}
{"smiles": "CN(C)c1cc2c(nn1)CCNC2", "Percent Effect": -15.18}
{"smiles": "OCCc1ccnc2ccccc12", "Percent Effect": -1.436}
{"smiles": "CSCC(=O)N1CCN(S(=O)(=O)N2CCOCC2)CC1", "Percent Effect": -10.5}
{"smiles": "CCC1CN(CCn2cccn2)CCN1", "stereo": "centres undefined", "Percent Effect": 25.18}
{"smiles": "CCC1CCCN(Cc2nc(-c3cccnc3)no2)C1", "stereo": "centres undefined", "Percent Effect": 6.831}
{"smiles": "O=C(NCc1cn2cc(Br)ccc2n1)C1CC1", "Percent Effect": -12.31}
{"smiles": "COC(=O)Cn1cnc2c(C)cccc2c1=O", "Percent Effect": -8.413}
{"smiles": "NCC(O)c1ccc(F)cc1F", "stereo": "centres undefined", "Percent Effect": 19.1}
{"smiles": "CNC(=O)Cc1noc(C=C2CCC2)n1", "Percent Effect": 7.898}
{"smiles": "Cc1ccc2[nH]cc(CCN)c2c1", "Percent Effect": 42.12}
{"smiles": "NCCc1cnn(-c2ccccc2)c1", "Percent Effect": 62.94}
{"smiles": "Cc1cc(NC(=O)Cn2ccc(=O)n(C)c2=O)no1", "Percent Effect": -8.003}
{"smiles": "CCSc1cc(CN)ccn1", "Percent Effect": 7.475}
{"smiles": "CN(C)C[C@@H]1CN(c2cccc(C#N)n2)C[C@@H]1CO", "Percent Effect": -11.15}
{"smiles": "CC(CNC(=O)Cn1cccn1)Sc1ccccc1", "stereo": "centres undefined", "Percent Effect": 71.63}
{"smiles": "CCOc1cccc(OCCCN2CCNCC2)c1", "Percent Effect": 9.778}
{"smiles": "CC1C(=O)NCCN1CC(=O)N1CCCCC1", "stereo": "centres undefined", "Percent Effect": -8.773}
{"smiles": "CC1CN(S(=O)(=O)CCCS(=O)(=O)N(C)C)CCN1", "stereo": "centres undefined", "Percent Effect": -5.679}
{"smiles": "NC(=O)CN(Cc1ccccc1)C(=O)C1CCCO1", "stereo": "centres undefined", "Percent Effect": -2.868}
{"smiles": "CCc1ncc(C(=O)NCCNc2cnccn2)s1", "Percent Effect": -3.76}
{"smiles": "CCNC(=O)C(C)NC(=O)c1ccc(OC)c(OC)c1", "stereo": "centres undefined", "Percent Effect": -17.09}
{"smiles": "CC(c1ccncn1)N(C)C(=O)Cc1ccccn1", "stereo": "centres undefined", "Percent Effect": -106.3}
{"smiles": "Cn1cc(NC(=O)C2=Cc3ccccc3OC2)cn1", "Percent Effect": 38.58}
{"smiles": "Cc1ccc(CN(C)C(=O)CO)c(C)c1", "Percent Effect": 3.574}
{"smiles": "CNC(=O)CSc1nc2cc(F)c(F)cc2[nH]1", "Percent Effect": -2.249}
{"smiles": "Cc1nn(CCO)c(C)c1CNCC1(O)CCCCC1", "Percent Effect": -7.002}
{"smiles": "CC(C(=O)NC1CC1)N1CCN(S(=O)(=O)N(C)C)CC1", "stereo": "centres undefined", "Percent Effect": 10.37}
{"smiles": "CN(Cc1nccn1C)C(=O)COCC1CCCO1", "stereo": "centres undefined", "Percent Effect": -9.31}
{"smiles": "Cc1nnc(CN2CCCC2c2ccccn2)s1", "stereo": "centres undefined", "Percent Effect": 3.775}
{"smiles": "NCC(CO)Cc1cccnc1", "stereo": "centres undefined", "Percent Effect": -2.136}
{"smiles": "CCOC(=O)CN(C)S(=O)(=O)NCc1cnn(C)c1", "Percent Effect": 16.67}
{"smiles": "C[C@@H](O)c1ccc(-n2cncn2)cc1", "Percent Effect": -2.792}
{"smiles": "Cn1cc(C(=O)NCC(=O)Nc2ccccc2Br)cn1", "Percent Effect": -14.29}
{"smiles": "COCc1nn(CCC2CCCC2)c(=O)o1", "Percent Effect": 85.2}